From patent publication US12285459B2, “Saposin-A derived peptides and uses thereof” (CHILDREN'S MEDICAL CENTER CORPORATION, priority 2011, dated 2025)
“Also recorded” adds a separate entry of the source. Not every detail of the peptide structures is certain; ends, links or a residue may be inferred. Non-standard residues stand in square brackets, D forms with d. Residues, ends and D or L forms follow the SMILES beside them.

What was measured:
[1] = system: Tsp-1 and p53 expression in lungs; assay: Tumor-free mice given PC3M-LN4 conditioned media plus peptide; Tsp-1/p53 in tissue by western blot; format: in vivo, C57Bl6 mice
Experimental: For tumor-free analysis C57Bl6 mice were treated with 200 uL of PC3M-LN4 media alone or in combination with peptides described above at dose of 30 mg/kg/day for 5 days. After treatment the animals were sacrificed and the lungs were harvested, lysed and analyzed for Tsp-1 and p53 protein levels as described previously (Kang et al).
It was sought to determine whether there was a smaller domain within saposin A that contained the p53/Tsp-1 stimulating activity. […] C57Bl6 mice (5-6 wks old) were injected daily with 300 uL of serum free DMEM, conditioned media (CM) from non-metastatic PC3 cells, CM from metastatic PC3M-LN4 cells and PC3M-LN4 CM plus 30 mg/kg of the pegylated 6 amino acid polypeptide (PEG2000-CDWLPK (SEQ ID NO: 46)) or 30 mg/kg of the pegylated 18 amino acid polypeptide (PEG2000-[…] (SEQ ID NO: 47)). After 9 days the mice were euthanized and the lungs and livers harvested and either fixed in formalin or lysed for Western blot analysis.
Finally, the effect of substituting D-amino acids at different residues of the 4-amino acid peptide was analyzed. By Western blot analysis it was observed that substituting the first and third or second and fourth residues, in combination, had no effect on the Tsp-1 stimulating activity in vitro. These peptides were then tested in the tumor-free animal model described above. The normal 4-amino acid peptide and the D-amino acid substituted peptides were injected in combination with conditioned media from PC3M-LN4 cells in adult C57Bl6 mice for 4 days at a dose of 10 or 30 mg/kg/day via i.p. injection. Mice were sacrificed 24 hours after the treatment on day 4. The lungs of these mice were harvested and analyzed the Tsp-1 expression by Western blot analysis. […]
Methods: 18 C57Bl6 mice were injected with Ac-dWlP-amide (SEQ ID NO: 132) at a dose of 30 mg/kg in a volume of 100 μL via intraperitoneal (i.p) injections in serum starved conditioned media from PC3M-LN4 prostate cancer cells. […] The relative intensity of the Tsp-1 (normalized to β-Actin) bands were determined using a Bio-Rad Chemi-Doc XRS system.

B16-Bl6 melanoma cells = assay: Subcutaneous B16-B6 / B16-Bl6 melanoma model; format: in vivo, C57Bl6 mice
[2] = system: GR1+/Cd11b+ bone marrow-derived monocytes; assay: FACS of GR1+/Cd11b+ cells in ascites fluid of ovarian cancer mice; format: in vivo; conditions: mice "cured" by peptide
[3] = Crohn's Disease models: TNBS and DSS mice (planned); format: in vivo; conditions: i.p.; versus control scramble

## CC(=O)N[C@H](CC(=O)O)C(=O)N[C@@H](Cc1c[nH]c2ccccc12)C(=O)N[C@H](CC(C)C)C(=O)N1CCC[C@H]1C(N)=O [Ac-dWlP-amide] (Ac-[dD]W[dL]P-NH2)
[1]; 30 mg/kg i.p. with PC3M-LN4 CM, 72 hours
  Tsp-1 levels in lungs greater than baseline: 2 fold
[1]; 30 mg/kg i.p. with PC3M-LN4 CM, by 16 hours, remained until 48 hours post-injection
  Tsp-1 induction in lungs, peak: 5 fold
[1]; mouse, in vivo
  Tsp-1 expression (FIG. 11 legend): induces Tsp-1 expression
B16-Bl6 melanoma cells; 40 mg/kg QD, DTIC 80 mg/kg QOD as comparator
  B16-Bl6 melanoma tumor growth: virtually block all tumor growth; also recorded: significantly more effective than DTIC alone or in combination
B16-Bl6 melanoma cells; B16-Bl6, 40 mg/kg QD from day 8, tumor diameter for 24 days
  t/c compared to PBS treated, control mice: 98%
B16-Bl6 melanoma cells; frozen sections, antibody staining
  Tsp-1 expression in Gr1 cells recruited to B16-Bl6 tumors: induced to express Tsp-1
[2]
  GR1+/Cd11b+ cells in the ascites fluid: less than 30%
[3]
  inflammation in Crohn's disease mice: reduced inflammation
